Data source: PubChem BioAssay AID504764 (Drosophila RNAi Screening Center, 2011)
Assay: 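Genome-wide screen for regulators of Notch-driven gene expression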 (primary screen). Cells: Drosophila Kc167 cells. Knock-down reagent: long dsRNA against Drosophila genes. Timing: about 5 days (4 days dsRNA, then 24 h after transfection). Treatment: transfection of constitutively active membrane-tethered Notch lacking the extracellular domain, read 24 h later. Detection: 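Light from a Notch-responsive E(spl)m3 luciferase reporter under active Notch, with control-promoter and no-Notch reporter wells to normalise; raw counts from paired wells a and b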. Scale: induced reporter light, run 1, well a and induced reporter light, run 1, well b: higher = more light from the Notch target reporter with active Notch; control promoter light, run 1, well a and control promoter light, run 1, well b: higher = more light from the viral control promoter (cell number, transfection, viability); uninduced reporter light, run 1, well a: higher = more light from the Notch target reporter without active Notch. Active means: 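Hit if the duplicate-averaged log2 ratio of induced to control-promoter light gives a plate-wise z beyond ±2, or induced to uninduced beyond ±1.8; weak-control or discordant-duplicate wells dropped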. Meaning of the calls: active = modifier hit (raised or lowered Notch signal); inactive = not a hit.
The deposit covers about 22,000 reagents; below is an unselected part of those with a known target gene and a result. In the full data, 403 (1.9%) are marked active. 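Unnormalised raw counts per well; ratio z-scores behind the hit calls and whether each hit raises or lowers signal are not deposited.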 The numbers tell different reagents against one gene apart. A plus sign joins genes that one reagent is predicted to hit. Reagent sequences are not shown. Not given: the amount of reagent.

| Target gene | dsRNA no. | induced reporter light, run 1, well a | induced reporter light, run 1, well b | control promoter light, run 1, well a | control promoter light, run 1, well b | uninduced reporter light, run 1, well a | Call |
| --- | --- | --- | --- | --- | --- | --- | --- |
| FucTC (alpha1,3-fucosyltransferase C) | 1 | 1.84e5 | 2.35e5 | 2.78e5 | 2.98e5 | 18110 | inactive |
| RpS21 (Ribosomal protein S21) | 1 | 91555 | 90685 | 1.37e5 | 1.29e5 | 5985 | inactive |
| CG5644 | 1 | 2.02e5 | 2.47e5 | 2.37e5 | 2.51e5 | 15705 | inactive |
| CG15358 | 1 | 1.40e5 | 81155 | 78130 | 54125 | 6955 | inactive |
| Edg78E (Ecdysone-dependent gene 78E) | 1 | 1.40e5 | 1.07e5 | 1.04e5 | 79655 | 5030 | inactive |
| Moca-cyp | 1 | 1.95e5 | 2.22e5 | 2.43e5 | 2.46e5 | 12760 | inactive |
| GatB (Glutamyl-tRNA amidotransferase, subunit B) | 1 | 1.35e5 | 1.49e5 | 2.14e5 | 1.93e5 | 12050 | inactive |
| MED20 (Mediator complex subunit 20) | 1 | 1.04e5 | 1.25e5 | 63095 | 77890 | 16200 | inactive |
| CG14417 | 1 | 1.33e5 | 1.28e5 | 2.41e5 | 2.54e5 | 10350 | inactive |
| lft (lowfat) | 1 | 1.13e5 | 1.35e5 | 58560 | 84075 | 14038 | inactive |
| Pal1 (Peptidyl-alpha-hydroxyglycine-alpha-amidating lyase 1) | 1 | 1.74e5 | 1.47e5 | 1.42e5 | 1.28e5 | 14535 | inactive |
| rempA (reduced mechanoreceptor potential A) | 1 | 1.16e5 | 1.02e5 | 1.05e5 | 69945 | 10795 | inactive |
| inaF-A | 1 | 1.26e5 | 1.30e5 | 2.99e5 | 2.60e5 | 10265 | inactive |
| Sf3b2 (Splicing factor 3b subunit 2) | 1 | 18445 | 13375 | 21480 | 22570 | 1210 | inactive |
| Atg2 (Autophagy-related 2) | 1 | 1.00e5 | 82500 | 1.62e5 | 1.79e5 | 7565 | inactive |
| Or1a (Odorant receptor 1a) | 1 | 1.41e5 | 1.07e5 | 2.90e5 | 2.09e5 | 8832 | inactive |
| CG8132 | 1 | 60740 | 82690 | 79550 | 41360 | 4020 | inactive |
| Eph (Eph receptor tyrosine kinase) | 1 | 1.71e5 | 2.08e5 | 3.30e5 | 2.75e5 | 13265 | inactive |
| CG3808 | 1 | 58375 | 48195 | 41585 | 41795 | 3515 | inactive |
| Srp54k (Signal recognition particle 54k) | 1 | 1.51e5 | 1.26e5 | 1.64e5 | 1.63e5 | 7135 | inactive |
| l(1)10Bb (lethal (1) 10Bb) | 1 | 88580 | 90565 | 89265 | 81500 | 6650 | inactive |
| mRpL18 (mitochondrial ribosomal protein L18) | 1 | 98795 | 79630 | 1.69e5 | 1.07e5 | 9230 | inactive |
| CG18682 (retired record) | 1 | 1.50e5 | 1.33e5 | 1.76e5 | 1.95e5 | 14110 | inactive |
| CG18682 (retired record) | 2 | 1.33e5 | 1.25e5 | 1.99e5 | 1.67e5 | 11455 | inactive |
| Akh (Adipokinetic hormone) | 1 | 72865 | 76500 | 1.18e5 | 96200 | 5505 | inactive |
| CG8097 | 1 | 77755 | 66080 | 72035 | 48735 | 9732 | inactive |
| CG33460 | 1 | 1.52e5 | 1.91e5 | 2.07e5 | 2.81e5 | 17520 | inactive |
| tow (target of wingless) | 1 | 8030 | 9050 | 10920 | 10232 | 2675 | inactive |
| twin | 1 | 1.86e5 | 2.13e5 | 2.22e5 | 2.56e5 | 15232 | inactive |
| twin | 2 | 1.40e5 | 1.57e5 | 2.22e5 | 1.77e5 | 12715 | inactive |
| brn (brainiac) | 1 | 1.59e5 | 1.67e5 | 2.28e5 | 2.26e5 | 10540 | inactive |
| CG4267 | 1 | 1.02e5 | 1.09e5 | 88425 | 44525 | 9100 | inactive |
| CG8927 | 1 | 1.78e5 | 2.13e5 | 1.46e5 | 1.53e5 | 17355 | inactive |
| CG18284 | 1 | 1.92e5 | 1.91e5 | 1.86e5 | 1.97e5 | 12015 | inactive |
| CG18284 | 2 | 2.06e5 | 1.61e5 | 3.42e5 | 2.95e5 | 15985 | inactive |
| CG8303 | 1 | 1.70e5 | 1.11e5 | 1.76e5 | 1.66e5 | 11955 | inactive |
| TwdlX (TweedleX) | 1 | 90290 | 99115 | 95615 | 1.05e5 | 8330 | inactive |
| NC2alpha (Negative Cofactor 2alpha) | 1 | 1.75e5 | 1.69e5 | 1.59e5 | 1.61e5 | 10530 | inactive |
| CG2926 | 1 | 76990 | 84450 | 60710 | 50395 | 9680 | inactive |
| CG17186 | 1 | 2.52e5 | 1.82e5 | 1.86e5 | 2.04e5 | 15635 | inactive |
| jef (jet fuel) | 1 | 1.34e5 | 1.50e5 | 2.15e5 | 1.86e5 | 11460 | inactive |
| p130CAS | 1 | 2.98e5 | 2.22e5 | 2.00e5 | 2.06e5 | 19655 | inactive |
| p130CAS | 2 | 48200 | 41365 | 60250 | 72240 | 3615 | inactive |
| Zip42C.2 (Zinc/iron regulated transporter-related protein 42C.2) | 1 | 1.83e5 | 1.82e5 | 1.66e5 | 1.76e5 | 13725 | inactive |
| CAH5 (Carbonic anhydrase 5) | 1 | 1.96e5 | 1.79e5 | 2.23e5 | 2.30e5 | 16875 | inactive |
| Cp38 (Chorion protein 38) | 1 | 1.71e5 | 1.53e5 | 3.13e5 | 2.93e5 | 12140 | inactive |
| Hsc70-5 (Heat shock protein 70 cognate 5) | 1 | 1.20e5 | 1.00e5 | 1.13e5 | 99420 | 9895 | inactive |
| Gapdh2 (Glyceraldehyde 3 phosphate dehydrogenase 2) | 1 | 59140 | 46745 | 65370 | 47275 | 9220 | inactive |
| CG14352 | 1 | 1.58e5 | 1.10e5 | 1.09e5 | 92130 | 10735 | inactive |
| PPYR1 (Protein phosphatase Y regulator 1) | 1 | 51695 | 53710 | 66665 | 84545 | 6810 | inactive |
| CG42662 + CG30080 | 1 | 1.86e5 | 2.11e5 | 2.66e5 | 3.94e5 | 19380 | inactive |
| CG30471 | 1 | 1.05e5 | 1.09e5 | 2.02e5 | 2.40e5 | 9975 | inactive |
| Hipk (Homeodomain interacting protein kinase) | 1 | 53520 | 55990 | 50145 | 54935 | 12675 | inactive |
| Hipk (Homeodomain interacting protein kinase) | 2 | 29575 | 24410 | 50485 | 49900 | 6625 | inactive |
| CG14694 | 1 | 28470 | 30665 | 30030 | 25295 | 1795 | inactive |
| PolG1 (DNA polymerase gamma subunit 1) | 1 | 1.43e5 | 1.71e5 | 1.43e5 | 1.73e5 | 12455 | inactive |
| Irbp18 (Inverted repeat binding protein 18 kDa) | 1 | 1.25e5 | 1.14e5 | 2.02e5 | 1.55e5 | 5095 | inactive |
| CG9581 | 1 | 1.44e5 | 1.28e5 | 1.28e5 | 72605 | 12360 | inactive |
| cac (cacophony) | 1 | 1.54e5 | 1.45e5 | 2.27e5 | 2.10e5 | 9665 | inactive |
| cac (cacophony) | 2 | 1.96e5 | 1.85e5 | 2.04e5 | 1.95e5 | 15450 | inactive |
| Desi (Desiccate) | 1 | 78320 | 77035 | 84600 | 61500 | 6855 | inactive |
| CG4820 | 1 | 82795 | 98805 | 94025 | 62750 | 4320 | inactive |
| CG5645 | 1 | 2.30e5 | 1.75e5 | 1.75e5 | 1.11e5 | 19220 | inactive |
| CG10359 | 1 | 1.32e5 | 1.32e5 | 1.02e5 | 31380 | 13682 | inactive |
